Measurements published in patent publication US20110300147A9, “Inhibiting tumor cell invasion, metastasis and angiogenesis” (The Scripps Research institute, priority 2005, published 2011).
For some of these results: At least one peptide structure holds a part that was inferred or is arguable (an end, a ring closure or a residue). For at least one compound, name, drawing or mass did not settle the structure. Numbered stars: 1 amine (or outer) side, 2 acyl side, 3 side chain; on linkers, the order of the positions; unused ones are H or OH. Peptide text beside a SMILES is read from it. * marks the point of attachment. Doxorubicin(3'-N) = COc1cccc2c1C(=O)c1c(O)c3c(c(O)c1C2=O)C[C@@](O)(C(=O)CO)C[C@@H]3O[C@H]1C[C@H](N*)[C@H](O)[C@H](C)O1; Suc = O=C(CCC(=O)[*:2])[*:1]; Boc = CC(C)(C)OC(=O)*

What was measured:
4T1 mammary carcinoma = assay: primary 4T1 tumor and spontaneous lung metastasis model; format: in vivo, BALB/c mice; details: LEG-3 treatment
Experimental: Primary 4T1 tumors are generated by subcutaneous injection of 5×10^5 4T1 cells in the right flank of six-week-old BALB/c mice. Two different groups of four animals were treated between days 9 and 27 after tumor induction. The treatments were 100-μl […] injections of PBS alone (control group) or LEG-3 100 μg/100 μl in PBS by intraperitoneal injection every two days for two weeks. Tumor volumes of treated animals were measured every two-day starting on day 9 by microcaliper measurements (volume=width×length×width/2). As soon as the tumor volume reached 1400 mm^3 in the control groups (on day 30th), euthanasia was performed and lungs were removed and fixed in the Bouin's solution. Lung metastases were counted by anatomy microscope. Statistical significance between treatment groups was determined by two-tailed Student's t tests using Microsoft EXCEL software.
Tumor induction was performed by subcutaneous injection of 5×10^5 4T1 cells in the right flank mammary fat pat of six-week-old BALB/c mice. […] Tumor volumes of treated animals were measured everyday starting on day 6 by micro-caliper measurements (volume=width×length×width/2). […] Lung metastases were counted by anatomy microscope. The statistical significance between treatment and control groups was determined by two-tailed Student's t tests using Microsoft EXCEL software.

[1] = tested on: CT26 murine colon carcinoma; assay: CT26 syngeneic murine colon carcinoma model; format: in vivo, Balb/c mice; details: for in vivo tumoricidal activity: mice bearing CT26 tumors
From the text: Animal models. […] Balb/C mice aged 4 to 6 weeks from the breeding colony were inoculated with 500,000 syngeneic CT26 tumor cells per site subcutaneously in the back. […] Treatment was repeated at 2 day intervals. The human 293 tumor models were generated in WEHI nude mice (The Scripps Research Institute breeding colony). […] Tumor growth and physical signs were monitored daily including any gross evidence of tumor necrosis, local tumor ulceration as well as evidence of toxicity including mobility, response to stimulus, eating, and weight of each animal. These procedures have been reviewed and approved by the Institutional Animal Care and Use Committee at The Scripps Research Institute. The work was conducted in The Scripps Research Institute facilities which are accredited by the Association for the Assessment and Accreditation of Laboratory Animal Care. The Scripps Research Institute maintains an assurance with the Public Health Service, is registered with the United States Department of Agriculture and is in compliance with all regulations relating to animal care and welfare.
Animal models. […] Treatment was three times per week for two weeks.

C1300 neuroblastoma = assay: C1300 mouse neuroblastoma model; format: in vivo, A/J mice
[2] = tested on: MDA-PCa-2b human prostate carcinoma; assay: MDA-PCa-2b human prostate carcinoma xenograft; details: MDA-PCa-2b tumor bearing mice
[3] = tested on: HT1080 human fibrosarcoma; assay: HT1080 human fibrosarcoma xenograft; format: in vivo, Balb/c nu/nu mice; details: HT1080 tumor bearing mice
legumain = target: T1, legumain (Homo sapiens, UniProt Q99538); assay: cleavage of LEG compounds by legumain; format: biochemical
T1 sequence (Q99538 18-323): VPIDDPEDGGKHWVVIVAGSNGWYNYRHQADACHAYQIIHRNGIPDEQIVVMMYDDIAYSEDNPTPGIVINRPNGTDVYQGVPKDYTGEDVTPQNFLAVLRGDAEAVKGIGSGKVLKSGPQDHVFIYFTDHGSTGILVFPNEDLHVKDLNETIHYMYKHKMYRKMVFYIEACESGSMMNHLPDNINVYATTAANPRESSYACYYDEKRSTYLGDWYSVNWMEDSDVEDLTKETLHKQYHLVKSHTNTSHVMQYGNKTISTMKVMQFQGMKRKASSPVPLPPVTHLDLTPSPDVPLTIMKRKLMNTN

[4] = six times in 12 days at 49.4 μM/kg

COc1cccc2c1C(=O)c1c(O)c3c(c(O)c1C2=O)C[C@@](O)(C(=O)CO)C[C@@H]3O[C@H]1C[C@H](NC(=O)[C@H](CC(C)C)NC(=O)[C@H](CC(N)=O)NC(=O)[C@H](C)NC(=O)[C@H](C)NC(=O)CCC(=O)O)[C@H](O)[C@H](C)O1 [LEG-3] (Suc-AANL-{Doxorubicin(3'-N)})
animal survival (4T1 mammary carcinoma): substantially improved | in vivo tumoricidal activity [1]: demonstrable in vivo tumoricidal efficacy | tumor eradication [1, 4]: complete tumor eradication in some mice | tumor growth [1, 4]: effectively arrested growth | survival (C1300 neuroblastoma; C1300 bearing mice vs untreated): marked enhancement of survival | tumor cell death (C1300 neuroblastoma; C1300 neuroblastoma in A/J mice): massive tumor cell death | survival and tumor eradication [2]: complete tumor eradication with marked enhancement of survival | survival and tumor eradication [3]: complete tumor eradication with marked enhancement of survival

COc1cccc2c1C(=O)c1c(O)c3c(c(O)c1C2=O)C[C@@](O)(C(=O)CO)C[C@@H]3O[C@H]1C[C@H](NC(=O)[C@H](CC(C)C)NC(=O)[C@H](CC(N)=O)NC(=O)[C@H](C)NC(=O)CCC(=O)O)[C@H](O)[C@H](C)O1 [LEG-4, N-Succinyl-β-alanyl-L-Asparaginyl-L-Leucyl-Doxorubicin]
in vivo tumoricidal activity [1]: devoid of tumoricidal activity | cleavage by legumain (legumain): is cleaved by legumain

COc1cccc2c1C(=O)c1c(O)c3c(c(O)c1C2=O)C[C@@](O)(C(=O)CO)C[C@@H]3O[C@H]1C[C@H](NC(=O)[C@H](CC(C)C)NC(=O)[C@H](CC(N)=O)NC(=O)[C@H](C)NC(=O)[C@H](C)NC(=O)OC(C)(C)C)[C@H](O)[C@H](C)O1 [legubicin, N-(-t-Butoxycarbonyl-L-alanyl-L-alanyl-L-asparaginyl-L-leucyl)doxorubicin] (Boc-AANL-{Doxorubicin(3'-N)})
tumor growth ([1]; i.p. 5 mg/kg three times at 2 day intervals): complete growth arrest | apoptotic index of tumor tissues (TUNEL), compared with doxorubicin ([1]; single injection of 5 mg/kg): higher apoptotic index | tumoricidal effects by histology, compared with doxorubicin ([1]; single injection of 5 mg/kg): more profound tumoricidal effects
